Reference: US20030170643A1, “Regulation of apoB treatment and drug screening for cardiovascular and metabolic disorders or syndromes” (priority 1999, published 2003)
For at least one compound, name, drawing or mass did not settle the structure.

Target: T1, purified bovine MTP (Bos taurus, UniProt P55156)
T1 sequence (P55156 12-887): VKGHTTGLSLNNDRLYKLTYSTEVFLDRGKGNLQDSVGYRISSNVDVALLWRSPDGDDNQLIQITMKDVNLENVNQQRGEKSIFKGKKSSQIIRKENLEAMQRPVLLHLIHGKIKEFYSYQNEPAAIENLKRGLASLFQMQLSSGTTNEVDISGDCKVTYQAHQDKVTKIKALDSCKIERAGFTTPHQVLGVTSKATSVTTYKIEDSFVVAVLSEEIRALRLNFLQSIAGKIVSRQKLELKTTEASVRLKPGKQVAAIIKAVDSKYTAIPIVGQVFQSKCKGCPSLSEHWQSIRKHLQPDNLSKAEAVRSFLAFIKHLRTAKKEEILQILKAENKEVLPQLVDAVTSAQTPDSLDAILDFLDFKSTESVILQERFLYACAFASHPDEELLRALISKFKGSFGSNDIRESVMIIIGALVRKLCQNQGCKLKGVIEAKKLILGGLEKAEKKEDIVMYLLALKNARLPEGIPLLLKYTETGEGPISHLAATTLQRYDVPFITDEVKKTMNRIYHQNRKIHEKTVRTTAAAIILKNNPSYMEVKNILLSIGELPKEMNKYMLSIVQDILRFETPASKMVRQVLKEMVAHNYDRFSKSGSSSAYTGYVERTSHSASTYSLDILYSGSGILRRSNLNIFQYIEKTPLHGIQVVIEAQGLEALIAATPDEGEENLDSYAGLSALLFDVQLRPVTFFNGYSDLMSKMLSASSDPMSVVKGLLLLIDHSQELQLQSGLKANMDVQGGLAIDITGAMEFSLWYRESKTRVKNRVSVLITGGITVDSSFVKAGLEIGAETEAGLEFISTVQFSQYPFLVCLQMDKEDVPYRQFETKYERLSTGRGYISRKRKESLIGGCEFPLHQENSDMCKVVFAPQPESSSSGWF
T1 sequence (P05307 21-510 partner): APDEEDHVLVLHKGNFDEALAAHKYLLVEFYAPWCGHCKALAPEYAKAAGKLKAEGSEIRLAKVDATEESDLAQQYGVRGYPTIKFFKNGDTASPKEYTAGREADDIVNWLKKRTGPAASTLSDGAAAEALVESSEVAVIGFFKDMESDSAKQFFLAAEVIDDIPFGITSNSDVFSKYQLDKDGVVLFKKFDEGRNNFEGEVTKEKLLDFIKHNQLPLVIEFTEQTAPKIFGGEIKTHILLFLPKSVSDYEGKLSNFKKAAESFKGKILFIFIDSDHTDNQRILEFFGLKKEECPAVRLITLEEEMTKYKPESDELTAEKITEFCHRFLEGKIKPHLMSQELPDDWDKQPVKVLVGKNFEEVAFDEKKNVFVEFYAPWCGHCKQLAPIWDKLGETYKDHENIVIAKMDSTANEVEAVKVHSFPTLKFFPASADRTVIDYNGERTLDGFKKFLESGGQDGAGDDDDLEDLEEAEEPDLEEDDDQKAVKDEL
Assay: MTP-mediated transfer of lipid classes biosynthetically labeled with OA or EPA (donor/acceptor vesicles)
Format: biochemical
Protocol: FIG. 5 illustrates that Ω-3 lipids are good substrates for MTP-mediated lipid transfer. HepG2 cells were incubated for 14 hr at 37° C. with ^14C-labeled oleate (OA) or ^14C-labeled EPA complexed to BSA (final concentration of either fatty acid was 0.8 mM). Total lipids were extracted from the washed cell monolayers and separated by preparative TLC into triglyceride (TG), cholesteryl ester (CE), phosphatidylcholine (PC), and phosphatidylethanolamine (PE). The isolated lipid classes were then incorporated (to a content of 0.5 mol %) into vesicles that were used as donors in lipid transfer assays with recombinant MTP. Results were normalized to the transfer of [^14C]triolein and are shown as mean values ±SE (n=4).
Three methods were used to assess possible effects of Ω-3 fatty acids on cellular MTP function. First, rat primary hepatocytes were incubated with BSA, OA, or EPA, and then MTP activity in cell lysates was measured using a fluorescent assay (Roar Biomedical, New York, NY). Second, to determine if lipid classes synthesized in the presence of OA or Ω-3 fatty acid are equivalent substrates for MTP, primary rat hepatocytes or HepG2 cells were incubated with tritiated OA or EPA, total cellular lipids were extracted into isopropanol, and biosynthetically labeled cholesteryl ester, triglyceride, and phospholipids were separated by preparative thin layer chromatography. Each of these isolated lipids was incorporated into vesicles that were used as donors in a transfer reaction with acceptor vesicles and […] of purified bovine MTP, as described in Jamil, H., Dickson, J. K., Jr., Chu, C. H., Lago, M. W., Rinehart, J. K., Biller, S. A., Gregg, R. E., and Wetterau, J. R. (1995) J Biol Chem 270(12), 6549-54. As an internal control for lipid transfer, each donor vesicle also contained [^14C]triolein. Third, to determine if Ω-3 lipids inhibit MTP-mediated transfer of non-Ω-3 lipids, artificial donor vesicles were prepared containing either labeled triolein or labeled POPC. The majority of lipid mass in these vesicles was unlabeled phosphatidylcholine that contained either 100% oleate esterified at the sn-2 position (control) or a mixture of 70% oleate and 30% DHA or 30% EPA. Transfer of the labeled lipids to acceptor vesicles in the presence of 50 μg of purified bovine MTP was measured as described in Jamil, H. et al (1995) J Biol Chem 270(12), 6549-54.
An intracellular abundance of relatively poor lipid substrates, produced during incubations of hepatocytes with EPA or DHA, could be functionally equivalent to MTP inhibition. Thus, rat primary hepatocytes and HepG2 cells were incubated with radiolabeled OA or EPA to allow incorporation of these fatty acids into lipid esters. […]

CC/C=C\C/C=C\C/C=C\C/C=C\C/C=C\CCCC(=O)O [EPA, eicosapentaenoic acid]
MTP-mediated transfer of labeled cholesteryl esters, % of [14C]triolein transfer (lipids from fatty acid-treated HepG2 cells, P=0.07): 25%+2% | MTP-mediated transfer of labeled phosphatidylethanolamines, % of [14C]triolein transfer (lipids from fatty acid-treated HepG2 cells, P=0.6): 1.1%+0.2% | MTP-mediated transfer of labeled phosphatidylcholines, % of [14C]triolein transfer (lipids from fatty acid-treated HepG2 cells, P=0.7): 2.6%+0.7% | MTP-mediated transfer rate of labeled triglycerides, % of [14C]triolein transfer (lipids harvested from fatty acid-treated HepG2 cells, P=0.3): 75%±10%
